Data from paper doi:10.1101/2022.05.11.491551.
Changes are numbered by the printed parent chain. In names and notes the source's numbering stands. Read-outs that look alike come from different tables or passages of the source. Results are given in words; binding and its absence hold for the method and conditions named. Binding seen in cells or lysates may run through a third protein. Some entries that bind do so weakly or less than the wild type. Tags and fused reporters may be left off the sequences shown. One block for each molecule: values may come before it.

Chains of the proteins cited; added tags and fusions are not shown. Lines headed by an entry give the natural chain unless they say otherwise; changes in a name come on top.
UniProt P48578, whole entry: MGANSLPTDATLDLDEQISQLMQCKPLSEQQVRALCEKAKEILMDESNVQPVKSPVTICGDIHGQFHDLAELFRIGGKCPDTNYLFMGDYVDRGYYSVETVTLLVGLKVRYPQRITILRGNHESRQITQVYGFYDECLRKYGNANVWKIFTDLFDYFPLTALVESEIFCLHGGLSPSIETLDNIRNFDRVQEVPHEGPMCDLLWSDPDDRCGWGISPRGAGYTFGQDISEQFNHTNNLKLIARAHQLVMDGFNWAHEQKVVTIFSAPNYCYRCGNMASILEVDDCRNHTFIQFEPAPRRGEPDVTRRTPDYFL

Legend:
Assay in all cases: co-IP
[1] = target: T1, A2-FLAG-GFP expressed in N. benthamiana leaves (Arabidopsis thaliana) (UniProt Q38950)
T1 sequence: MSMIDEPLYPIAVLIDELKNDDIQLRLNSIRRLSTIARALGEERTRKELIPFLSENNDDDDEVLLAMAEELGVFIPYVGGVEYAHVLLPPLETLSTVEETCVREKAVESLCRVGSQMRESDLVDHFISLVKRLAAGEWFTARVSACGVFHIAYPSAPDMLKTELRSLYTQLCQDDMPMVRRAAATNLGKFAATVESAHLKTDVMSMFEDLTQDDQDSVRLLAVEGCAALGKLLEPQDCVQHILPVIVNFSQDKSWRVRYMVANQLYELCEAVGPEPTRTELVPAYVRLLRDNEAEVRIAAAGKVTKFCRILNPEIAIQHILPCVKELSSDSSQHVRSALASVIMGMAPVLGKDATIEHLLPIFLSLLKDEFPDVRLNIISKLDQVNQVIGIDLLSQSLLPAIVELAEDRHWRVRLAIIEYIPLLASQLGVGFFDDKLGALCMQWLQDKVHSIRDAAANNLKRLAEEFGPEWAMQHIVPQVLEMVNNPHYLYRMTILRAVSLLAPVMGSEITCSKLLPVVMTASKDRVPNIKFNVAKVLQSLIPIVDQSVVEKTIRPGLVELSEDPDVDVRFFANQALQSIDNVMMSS

[2] = target: T2, A2-FLAG-GFP expressed in Arabidopsis (Arabidopsis thaliana) (UniProt Q38950)
T2 sequence: T1 sequence

[3] = target: T2, A2-FLAG-GFP expressed in Arabidopsis (Arabidopsis thaliana); remark: listed apart in the source
[4] = target: C4-YFP-HA expressed in Arabidopsis (Arabidopsis thaliana) (UniProt P48578)
[5] = target: C4-YFP-HA expressed in Arabidopsis (Arabidopsis thaliana) (UniProt P48578); remark: listed apart in the source
[6] = target: C4-YFP-HA expressed in Arabidopsis (Arabidopsis thaliana) (UniProt P48578); remark: listed apart in the source
[7] = target: T2, A2-FLAG-GFP expressed in Arabidopsis (Arabidopsis thaliana); remark: listed apart in the source
[8] = target: T3, EIR1, endogenous in Arabidopsis roots (Arabidopsis thaliana (endogenous in roots of seedlings)) (UniProt Q9LU77)
T3 sequence: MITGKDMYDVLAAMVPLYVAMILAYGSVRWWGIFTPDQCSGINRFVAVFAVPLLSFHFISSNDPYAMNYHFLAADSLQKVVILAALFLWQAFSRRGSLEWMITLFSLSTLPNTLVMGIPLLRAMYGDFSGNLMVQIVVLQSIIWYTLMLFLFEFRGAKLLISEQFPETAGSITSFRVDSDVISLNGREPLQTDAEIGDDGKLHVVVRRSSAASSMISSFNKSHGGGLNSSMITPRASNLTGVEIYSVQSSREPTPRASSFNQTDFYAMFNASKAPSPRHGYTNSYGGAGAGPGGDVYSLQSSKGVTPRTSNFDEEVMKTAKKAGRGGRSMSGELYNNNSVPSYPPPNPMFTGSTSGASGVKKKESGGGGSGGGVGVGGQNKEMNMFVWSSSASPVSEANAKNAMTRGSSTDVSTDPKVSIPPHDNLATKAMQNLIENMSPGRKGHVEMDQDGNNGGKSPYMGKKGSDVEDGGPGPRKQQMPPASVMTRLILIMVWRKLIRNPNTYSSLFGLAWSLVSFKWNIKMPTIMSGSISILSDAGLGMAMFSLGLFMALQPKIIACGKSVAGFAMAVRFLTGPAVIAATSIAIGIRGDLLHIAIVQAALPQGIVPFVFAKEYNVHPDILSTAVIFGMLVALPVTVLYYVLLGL

[9] = target: T4, EIR1 transiently expressed in Arabidopsis protoplasts (Arabidopsis thaliana) (UniProt Q9LU77)
T4 sequence: T3 sequence

[10] = target: C4-YFP-HA expressed in N. benthamiana leaves (Arabidopsis thaliana) (UniProt P48578)

binding [1]: binds
Molecule: C4-YFP-HA expressed in N. benthamiana leaves (from UniProt P48578 1-313) (enzyme)

binding [4]: binds | binding [2]: binds
B2: Bβ^S460A-Myc expressed in Arabidopsis protoplasts (protein, UniProt Q39247 1-501)
chain: MNGGDDAATSGPPPSLEWRFSQVFGERTAGEEVQEVDIISAIEFDKSGDHLATGDRGGRVVLFERTDTKDHGGSRKDLEQTDYPVRHPEFRYKTEFQSHEPEFDYLKSLEIEEKINKIRWCQPANGALFLLSTNDKTIKYWKVQEKKIKKISEMNIDPSESSNIPPQLVTNGLPADKGHDYLSKDFSFPPGGIPSLRLPVVVTSQETNLVARCRRVYAHAHDYHINSISNSSDGETFISADDLRVNLWNLEISNQSFNIVDVKPTNMEDLTEVITSAEFHPIHCNMLAYSSSKGSIRLIDMRQSALCDSHTKLFEEPEAPGSRSFFTEIIASISDIKFSKDGRYILSRDYMTLKLWDINMDSGPVASYQVHEHLRPRLCDLYENDSIFDKFECCLSGDGLRVATGSYSNLFRVFGASQGSTEAATLEASKNPMRRQIQTPARPSRSIGSMTRVVRRGSEAPGTEANGNAYDFTTKLLHMAWHPTENSIACAAANSLYMYYA

binding [2]: binds
B5: Bβ^S460E-Myc expressed in Arabidopsis protoplasts (protein, UniProt Q39247 1-501)
chain: B2 chain with A460E

binding [10]: binds
B7: Bβ^S460A-Myc expressed in N. benthamiana leaves (protein, UniProt Q39247 1-501)
chain: B2 chain

binding [10]: no binding
B8: Bβ^S460E-Myc expressed in N. benthamiana leaves (protein, UniProt Q39247 1-501)
chain: B2 chain with A460E

Second part, the molecule before the results:

Molecule: C4-YFP-HA expressed in Arabidopsis (from UniProt P48578 1-313) (enzyme)
binding [2]: binds | binding [3]: binds

B1: Bβ-Myc expressed in Arabidopsis (protein, UniProt Q39247 1-501)
chain: B2 chain with A460S
binding [4]: binds | binding [2]: binds | binding [5]: binds | binding [6]: binds

B3: EIR1 transiently expressed in Arabidopsis protoplasts (protein, UniProt Q9LU77 1-647)
chain: T3 sequence
binding [7]: binds | binding [2]: binds

B4: A2-FLAG-GFP expressed in Arabidopsis (protein, UniProt Q38950 1-587)
chain: T1 sequence
binding [8]: binds | binding [9]: binds

B6: Bβ-Myc expressed in N. benthamiana leaves (protein, UniProt Q39247 1-501)
chain: B2 chain with A460S
binding [10]: binds
